Results deposited as PubChem BioAssay AID1671195 (Yale University, 2021)

Test: 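Regulators of LDL receptor activity judged by labelled LDL uptake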 (primary screen)
Cells: human Huh7 hepatoma cells
Knock-down reagent: siRNA pool against human genes, 18 nM
Time to read-out: about 2 to 2.5 days of knockdown, then 8 h LDL uptake
Conditions: DiI-labelled LDL at 30 µg/ml for 8 h, in lipoprotein-deficient serum medium
Read-out: 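Per-cell DiI-LDL intensity by automated imaging; well means scaled to the plate median and given as a robust z-score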
Scale: robust z-score: higher = more LDL uptake after knockdown
Hit rule: 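Active when two or more replicates show a robust z-score above 2 or below -2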
This is one part, drawn at random, of about 22,000 reagents. Over the whole deposit, about 1,510 (6.9%) are marked active. 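Active includes knockdowns raising or lowering LDL uptake; positive z-scores mean more uptake, negative mean less.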 Entries without a mark were called inactive.

gene | robust z-score, replicate 1 | robust z-score, replicate 2 | robust z-score, replicate 3
KRT39 (GeneID 390792) | 0.333 | -0.314 | -0.154
TMEM141 (GeneID 85014) | -0.247 | -0.519 | -0.176
PPIL2 (GeneID 23759) | 0.606 | -0.339 | 0.73
C12orf76 (GeneID 400073) | 1.65 | 1.53 | 1.58
SLC19A4P (GeneID 56918) | 0.867 | 1.15 | 0.142
TBC1D4 (GeneID 9882) | -1.14 | 0.599 | 0.801
PPME1 (GeneID 51400) | 1.58 | 1.36 | 1.67
SEZ6L2 (GeneID 26470) | 3.73 (active) | 3.05 | 3.27
STX6 (GeneID 10228) | 0.486 | 0.187 | 0.776
TIAM1-AS1 (GeneID 150051) | -0.948 | -0.943 | -0.962
VPS72 (GeneID 6944) | 1.4 | 1.02 | 1.4
RASGEF1A (GeneID 221002) | -0.452 | -0.724 | -0.412
NDFIP2 (GeneID 54602) | 0.238 | 0.302 | -0.0996
XAB2 (GeneID 56949) | -0.73 | -0.711 | -1.12
PCSK9 (GeneID 255738) | 2.51 (active) | 3.96 | 3.57
ZNF10 (GeneID 7556) | -0.926 | -0.5 | -1.16
DGKD (GeneID 8527) | -0.478 | -0.885 | -0.765
TCF15 (GeneID 6939) | 0.581 | -0.207 | -0.38
LOC440133 (retired record) (GeneID 440133) | 0.664 | 0.16 | 0.594
TMEM170A (GeneID 124491) | -2.25 (active) | -2.65 | -2.42
SIX5 (GeneID 147912) | -0.0533 | 0.246 | 0.127
LOC400987 (retired record) (GeneID 400987) | 0.863 | 0.43 | 0.373
GABRQ (GeneID 55879) | -0.294 | 0.822 | 0.0491
VPS35 (GeneID 55737) | 0.735 | 0.285 | 0.212
CEP192 (GeneID 55125) | -0.741 | 1.3 | -0.113
SDHAF2 (GeneID 54949) | -1.53 | 0.144 | -1.13
FBXO33 (GeneID 254170) | -0.773 | -0.452 | -0.801
OAZ2 (GeneID 4947) | 0.201 | -0.458 | -0.567
ZNF583 (GeneID 147949) | 1.19 | 0.879 | 1.39
TPK1 (GeneID 27010) | -0.0299 | -0.911 | -0.518
CBS (GeneID 875) | -0.985 | -0.867 | -0.963
LOC390606 (retired record) (GeneID 390606) | -1.01 | -1.37 | -1.41
HLA-DOA (GeneID 3111) | -0.227 | 0.128 | 0.427
TK1 (GeneID 7083) | 0.977 | 1.29 | 1.38
DNASE1L2 (GeneID 1775) | 1.36 | 1.74 | 2.21
PLBD1 (GeneID 79887) | -0.325 | -0.571 | -0.965
CIAO2A (GeneID 84191) | 1.5 | 1.28 | 1.07
XAGE5 (GeneID 170627) | 0.722 | 0.865 | 1.11
SLC71A2 (GeneID 84641) | -2.38 (active) | -2.18 | -2.17
DPH2 (GeneID 1802) | 1.54 | -0.49 | 0.381
LOC389095 (retired record) (GeneID 389095) | 0.152 | -0.0506 | -0.0962
ACTB (GeneID 60) | 0.545 | 1.03 | -0.142
TRADD (GeneID 8717) | 0.0059 | 0.232 | 1.32
ZNF79 (GeneID 7633) | 0.177 | -0.0756 | -0.0297
GPR6 (GeneID 2830) | -0.429 | 1.39 | 0.901
PUS7L (GeneID 83448) | 0.167 | -0.0923 | -0.0366
ASB9 (GeneID 140462) | -1.37 | -0.157 | -1.12

The list goes on, starting with the last 4 of the part before.
gene | robust z-score, replicate 1 | robust z-score, replicate 2 | robust z-score, replicate 3
ZNF79 (GeneID 7633) | 0.177 | -0.0756 | -0.0297
GPR6 (GeneID 2830) | -0.429 | 1.39 | 0.901
PUS7L (GeneID 83448) | 0.167 | -0.0923 | -0.0366
ASB9 (GeneID 140462) | -1.37 | -0.157 | -1.12
ZNF546 (GeneID 339327) | -0.952 | -0.938 | -0.817
PART1 (GeneID 25859) | 0.878 | 1.83 | 0.171
ZKSCAN4 (GeneID 387032) | -0.72 | -0.591 | -0.281
RAPGEF2 (GeneID 9693) | 1.23 | 1.29 | 1.74
SLC35F5 (GeneID 80255) | 2.83 (active) | 2.85 | 2.31
COL4A3 (GeneID 1285) | -0.556 | -1.67 | -1.5
DPP6 (GeneID 1804) | -1.19 | -0.904 | -0.711
POLG2 (GeneID 11232) | -0.711 | -0.584 | -0.514
LOC388220 (retired record) (GeneID 388220) | -1.17 | -1.21 | -1.06
NDUFB10 (GeneID 4716) | 0.0467 | -1.5 | -1.85
PAN3 (GeneID 255967) | -0.445 | -0.806 | -0.422
LMO1 (GeneID 4004) | 0.0111 | -0.17 | -0.141
ATP6V0A2 (GeneID 23545) | -0.902 | -1.17 | -0.479
USP35 (GeneID 57558) | 0.0359 | -0.684 | -0.0668
FUS (GeneID 2521) | 1.91 (active) | 2.34 | 2.12
PLIN3 (GeneID 10226) | 1.78 | 0.0681 | 0.498
MLNR (GeneID 2862) | -0.269 | 0.405 | -0.185
GDAP1L1 (GeneID 78997) | -0.251 | -0.00609 | -0.21
RAB40B (GeneID 10966) | 0.301 | -0.695 | -0.7
CCDC69 (GeneID 26112) | 0.391 | 1.68 | 0.0125
BTBD1 (GeneID 53339) | 0.748 | 1.06 | 0.503
REM2 (GeneID 161253) | 0.324 | -0.422 | 0.291
TFAP2D (GeneID 83741) | -0.844 | -0.599 | -0.754
TNNI2 (GeneID 7136) | 1.07 | -0.954 | 1.95
CNN3 (GeneID 1266) | 1.78 | 1.83 | 1.73
POT1-AS1 (GeneID 401398) | 0.992 | 0.214 | 0.703
SMAD3 (GeneID 4088) | -1.08 | -1.07 | -1.06
DISC1 (GeneID 27185) | 1.54 | 0.51 | 1.28
CYTIP (GeneID 9595) | 0.289 | -0.455 | -0.818
CEP295 (GeneID 85459) | 1.08 | 0.985 | 0.798
SLC2A2 (GeneID 6514) | -1.63 | -1.96 | -1.56
SNX17 (GeneID 9784) | -1.78 | -1.4 | 0.294
EWSR1 (GeneID 2130) | 3.39 (active) | 3.96 | 3.58
CATSPER1 (GeneID 117144) | 0.09 | -0.296 | 0.388
LOC388616 (retired record) (GeneID 388616) | -0.635 | -0.264 | -0.69
ZNF620 (GeneID 253639) | -0.327 | -0.451 | -0.223
RALB (GeneID 5899) | -0.463 | -0.917 | -0.867
PCNA (GeneID 5111) | 0.912 | -0.0515 | 1.68
SLC39A14 (GeneID 23516) | -0.369 | -0.0379 | -0.422
SRP14 (GeneID 6727) | -2.14 (active) | -1.85 | -1.99
